Here are results for 6 molecules from article PMC9879932.

By UniProt entry, the sequences of proteins in these tests, tags left out.
UniProt P62195: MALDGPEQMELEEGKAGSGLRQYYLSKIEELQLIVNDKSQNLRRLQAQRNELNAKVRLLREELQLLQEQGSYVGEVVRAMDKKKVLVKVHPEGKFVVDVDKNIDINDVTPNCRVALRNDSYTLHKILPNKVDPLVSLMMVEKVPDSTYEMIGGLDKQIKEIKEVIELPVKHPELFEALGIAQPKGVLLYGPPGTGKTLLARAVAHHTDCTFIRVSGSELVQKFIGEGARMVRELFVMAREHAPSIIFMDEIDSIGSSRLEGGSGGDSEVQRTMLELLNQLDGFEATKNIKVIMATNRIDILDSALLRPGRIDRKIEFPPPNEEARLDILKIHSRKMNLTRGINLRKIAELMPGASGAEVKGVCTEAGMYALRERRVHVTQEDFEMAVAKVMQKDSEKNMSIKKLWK
UniProt O95071: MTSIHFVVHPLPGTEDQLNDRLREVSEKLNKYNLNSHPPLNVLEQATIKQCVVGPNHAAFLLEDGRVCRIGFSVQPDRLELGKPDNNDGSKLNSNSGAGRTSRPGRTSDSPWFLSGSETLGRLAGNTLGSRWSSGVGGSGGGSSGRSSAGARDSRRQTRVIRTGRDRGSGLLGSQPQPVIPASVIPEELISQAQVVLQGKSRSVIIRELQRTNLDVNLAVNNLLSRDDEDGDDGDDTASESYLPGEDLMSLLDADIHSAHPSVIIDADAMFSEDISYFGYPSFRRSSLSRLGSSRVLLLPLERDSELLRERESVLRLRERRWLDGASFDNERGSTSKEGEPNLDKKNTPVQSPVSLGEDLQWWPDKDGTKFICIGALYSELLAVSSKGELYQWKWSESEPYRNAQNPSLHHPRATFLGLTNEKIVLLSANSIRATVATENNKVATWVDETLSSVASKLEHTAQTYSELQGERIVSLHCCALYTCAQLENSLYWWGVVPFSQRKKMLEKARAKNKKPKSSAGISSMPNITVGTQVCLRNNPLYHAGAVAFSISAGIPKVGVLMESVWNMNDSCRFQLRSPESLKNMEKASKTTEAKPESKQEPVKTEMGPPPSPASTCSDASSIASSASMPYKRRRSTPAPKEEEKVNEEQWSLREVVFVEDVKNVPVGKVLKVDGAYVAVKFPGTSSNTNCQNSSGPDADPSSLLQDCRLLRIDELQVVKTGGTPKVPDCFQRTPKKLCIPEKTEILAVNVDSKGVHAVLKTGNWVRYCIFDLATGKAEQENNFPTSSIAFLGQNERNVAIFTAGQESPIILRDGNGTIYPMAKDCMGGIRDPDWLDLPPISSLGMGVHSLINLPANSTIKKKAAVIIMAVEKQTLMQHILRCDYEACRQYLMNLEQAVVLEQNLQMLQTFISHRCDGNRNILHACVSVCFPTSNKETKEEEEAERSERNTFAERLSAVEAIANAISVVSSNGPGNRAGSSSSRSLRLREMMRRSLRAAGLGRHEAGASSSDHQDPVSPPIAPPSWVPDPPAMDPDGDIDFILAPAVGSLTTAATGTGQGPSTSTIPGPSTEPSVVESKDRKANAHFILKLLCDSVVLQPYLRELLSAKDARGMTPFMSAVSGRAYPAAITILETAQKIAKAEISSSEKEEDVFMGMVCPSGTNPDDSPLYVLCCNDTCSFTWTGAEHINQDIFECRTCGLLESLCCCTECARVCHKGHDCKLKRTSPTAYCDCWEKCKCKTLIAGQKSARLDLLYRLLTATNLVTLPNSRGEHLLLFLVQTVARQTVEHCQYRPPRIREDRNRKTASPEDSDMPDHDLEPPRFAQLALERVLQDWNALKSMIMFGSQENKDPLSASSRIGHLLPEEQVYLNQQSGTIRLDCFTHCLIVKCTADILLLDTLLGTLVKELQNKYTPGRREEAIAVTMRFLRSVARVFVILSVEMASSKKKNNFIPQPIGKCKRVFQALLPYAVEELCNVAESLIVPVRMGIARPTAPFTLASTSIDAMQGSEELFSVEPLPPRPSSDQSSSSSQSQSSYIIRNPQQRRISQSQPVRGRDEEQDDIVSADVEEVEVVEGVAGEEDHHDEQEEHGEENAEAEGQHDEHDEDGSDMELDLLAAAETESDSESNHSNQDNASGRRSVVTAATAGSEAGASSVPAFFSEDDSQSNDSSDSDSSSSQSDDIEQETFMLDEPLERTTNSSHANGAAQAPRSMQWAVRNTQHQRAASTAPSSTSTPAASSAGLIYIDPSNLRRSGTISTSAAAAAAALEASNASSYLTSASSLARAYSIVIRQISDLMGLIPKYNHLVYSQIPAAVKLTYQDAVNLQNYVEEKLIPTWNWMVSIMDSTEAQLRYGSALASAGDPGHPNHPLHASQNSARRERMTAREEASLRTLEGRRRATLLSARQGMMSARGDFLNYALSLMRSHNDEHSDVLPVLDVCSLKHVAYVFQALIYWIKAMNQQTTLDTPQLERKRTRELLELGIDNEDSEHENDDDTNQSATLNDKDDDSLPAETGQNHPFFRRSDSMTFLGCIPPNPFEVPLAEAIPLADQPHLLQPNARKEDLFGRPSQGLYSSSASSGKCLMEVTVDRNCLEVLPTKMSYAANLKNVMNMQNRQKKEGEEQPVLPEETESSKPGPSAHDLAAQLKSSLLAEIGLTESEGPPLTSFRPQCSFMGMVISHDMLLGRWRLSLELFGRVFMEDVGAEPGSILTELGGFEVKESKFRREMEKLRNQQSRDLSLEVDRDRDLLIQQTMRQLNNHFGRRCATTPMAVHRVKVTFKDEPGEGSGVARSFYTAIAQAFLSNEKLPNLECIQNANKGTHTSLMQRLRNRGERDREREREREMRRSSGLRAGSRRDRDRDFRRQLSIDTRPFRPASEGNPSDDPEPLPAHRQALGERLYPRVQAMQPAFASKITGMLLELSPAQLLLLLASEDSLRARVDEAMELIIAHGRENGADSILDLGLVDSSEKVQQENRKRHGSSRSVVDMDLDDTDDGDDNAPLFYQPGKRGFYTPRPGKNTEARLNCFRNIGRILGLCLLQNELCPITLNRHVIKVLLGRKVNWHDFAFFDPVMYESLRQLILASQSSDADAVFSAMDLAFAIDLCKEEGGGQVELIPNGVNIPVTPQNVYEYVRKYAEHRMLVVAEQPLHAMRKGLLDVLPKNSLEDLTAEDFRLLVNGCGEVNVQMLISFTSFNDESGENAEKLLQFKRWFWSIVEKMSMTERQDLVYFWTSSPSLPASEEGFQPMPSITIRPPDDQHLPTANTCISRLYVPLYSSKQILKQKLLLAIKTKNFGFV

To fix the notation:
T1: GFP-USP49Long (pEGFP-USP49Long) (UniProt Q70CQ1)
T1 sequence: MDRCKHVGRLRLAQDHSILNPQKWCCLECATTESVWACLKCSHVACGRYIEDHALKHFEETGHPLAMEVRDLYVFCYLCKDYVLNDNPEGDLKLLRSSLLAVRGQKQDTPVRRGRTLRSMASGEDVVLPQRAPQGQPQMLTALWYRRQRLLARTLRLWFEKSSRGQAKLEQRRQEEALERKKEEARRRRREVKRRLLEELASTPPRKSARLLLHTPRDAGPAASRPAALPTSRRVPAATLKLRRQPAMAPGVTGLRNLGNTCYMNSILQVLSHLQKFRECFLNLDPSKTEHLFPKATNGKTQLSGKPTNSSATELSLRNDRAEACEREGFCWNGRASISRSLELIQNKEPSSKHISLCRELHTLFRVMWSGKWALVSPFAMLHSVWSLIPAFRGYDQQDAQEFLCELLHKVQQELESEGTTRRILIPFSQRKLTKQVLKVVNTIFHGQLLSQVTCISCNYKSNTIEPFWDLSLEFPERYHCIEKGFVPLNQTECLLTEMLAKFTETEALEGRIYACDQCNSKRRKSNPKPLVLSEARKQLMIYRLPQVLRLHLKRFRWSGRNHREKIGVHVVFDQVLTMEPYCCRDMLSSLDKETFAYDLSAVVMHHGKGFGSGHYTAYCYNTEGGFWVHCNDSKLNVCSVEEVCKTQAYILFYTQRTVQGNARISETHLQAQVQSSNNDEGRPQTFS

B1: PPM1G (endogenous) (enzyme, UniProt O15355 1-546)
chain: MGAYLSQPNTVKCSGDGVGAPRLPLPYGFSAMQGWRVSMEDAHNCIPELDSETAMFSVYDGHGGEEVALYCAKYLPDIIKDQKAYKEGKLQKALEDAFLAIDAKLTTEEVIKELAQIAGRPTEDEDEKEKVADEDDVDNEEAALLHEEATMTIEELLTRYGQNCHKGPPHSKSGGGTGEEPGSQGLNGEAGPEDSTRETPSQENGPTAKAYTGFSSNSERGTEAGQVGEPGIPTGEAGPSCSSASDKLPRVAKSKFFEDSEDESDEAEEEEEDSEECSEEEDGYSSEEAENEEDEDDTEEAEEDDEEEEEEMMVPGMEGKEEPGSDSGTTAVVALIRGKQLIVANAGDSRCVVSEAGKALDMSYDHKPEDEVELARIKNAGGKVTMDGRVNGGLNLSRAIGDHFYKRNKNLPPEEQMISALPDIKVLTLTDDHEFMVIACDGIWNVMSSQEVVDFIQSKISQRDENGELRLLSSIVEELLDQCLAPDTSGDGTGCDNMTCIIICFKPRNTAELQPESGKRKLEEVLSTEGAEENGNSDKKKKAKRD
B2: CETN3 (endogenous) (protein, UniProt O15182 1-167)
chain: MSLALRSELVVDKTKRKKRRELSEEQKQEIKDAFELFDTDKDEAIDYHELKVAMRALGFDVKKADVLKILKDYDREATGKITFEDFNEVVTDWILERDPHEEILKAFKLFDDDDSGKISLRNLRRVARELGENMSDEELRAMIEEFDKDGDGEINQEEFIAIMTGDI
B3: RPN1 (endogenous) (protein, UniProt P04843 24-607)
chain: ASSEAPPLINEDVKRTVDLSSHLAKVTAEVVLAHLGGGSTSRATSFLLALEPELEARLAHLGVQVKGEDEEENNLEVRETKIKGKSGRFFTVKLPVALDPGAKISVIVETVYTHVLHPYPTQITQSEKQFVVFEGNHYFYSPYPTKTQTMRVKLASRNVESYTKLGNPTRSEDLLDYGPFRDVPAYSQDTFKVHYENNSPFLTITSMTRVIEVSHWGNIAVEENVDLKHTGAVLKGPFSRYDYQRQPDSGISSIRSFKTILPAAAQDVYYRDEIGNVSTSHLLILDDSVEMEIRPRFPLFGGWKTHYIVGYNLPSYEYLYNLGDQYALKMRFVDHVFDEQVIDSLTVKIILPEGAKNIEIDSPYEISRAPDELHYTYLDTFGRPVIVAYKKNLVEQHIQDIVVHYTFNKVLMLQEPLLVVAAFYILFFTVIIYVRLDFSITKDPAAEARMKVACITEQVLTLVNKRIGLYRHFDETVNRYKQSRDISTLNSGKKSLETEHKALTSEIALLQSRLKTEGSDLCDRVSEMQKLDAQVKELVLKSAVEAERLVAGKLKKDTYIENEKLISGKRQELVTKIDHILDAL
B4: USP44 (endogenous) (enzyme, UniProt Q9H0E7 1-712)
chain: MLAMDTCKHVGQLQLAQDHSSLNPQKWHCVDCNTTESIWACLSCSHVACGRYIEEHALKHFQESSHPVALEVNEMYVFCYLCDDYVLNDNTTGDLKLLRRTLSAIKSQNYHCTTRSGRFLRSMGTGDDSYFLHDGAQSLLQSEDQLYTALWHRRRILMGKIFRTWFEQSPIGRKKQEEPFQEKIVVKREVKKRRQELEYQVKAELESMPPRKSLRLQGLAQSTIIEIVSVQVPAQTPASPAKDKVLSTSENEISQKVSDSSVKRRPIVTPGVTGLRNLGNTCYMNSVLQVLSHLLIFRQCFLKLDLNQWLAMTASEKTRSCKHPPVTDTVVYQMNECQEKDTGFVCSRQSSLSSGLSGGASKGRKMELIQPKEPTSQYISLCHELHTLFQVMWSGKWALVSPFAMLHSVWRLIPAFRGYAQQDAQEFLCELLDKIQRELETTGTSLPALIPTSQRKLIKQVLNVVNNIFHGQLLSQVTCLACDNKSNTIEPFWDLSLEFPERYQCSGKDIASQPCLVTEMLAKFTETEALEGKIYVCDQCNSKRRRFSSKPVVLTEAQKQLMICHLPQVLRLHLKRFRWSGRNNREKIGVHVGFEEILNMEPYCCRETLKSLRPECFIYDLSAVVMHHGKGFGSGHYTAYCYNSEGGFWVHCNDSKLSMCTMDEVCKAQAYILFYTQRVTENGHSKLLPPELLLGSQHPNEDADTSSNEILS

These are yes or no findings as the source states them, for the method shown. Binding seen in cells or lysates may run through a third protein. These calls come from enrichment with a bait or labelling near it, and not all partners need be listed. Where a sequence is shown, tags or fusion partners need not be part of it.

For the assay, the target named is T1, GFP-USP49Long (pEGFP-USP49Long). The assay can be described thus: affinity purification with mass spectrometry; HEK-293T transfected with pEGFP-USP49Long, pEGFP-USP49Short or pEGFP empty; lysed in co-IP buffer (150 mM NaCl, 20 mM Tris-HCl pH 7.4, 1% NP-40, 1 mM MgCl2); anti-GFP-conjugated Dynabeads 1 h at 4 C; nano-LC-MS, peptide counting.
As for “PRS8 (endogenous) (from UniProt P62195 1-406)”, the binding result is listed as “binds”.
As for “UBR5 (endogenous) (from UniProt O95071 1-2799)”, the entry is “binds”.
Next, B1: “binds”; B2: “binds”; B3: “binds”.
For B4, the binding entry is “binds”.
